# Source: US20160272721A1
# Sequences of proteins named here, by UniProt entry; tags and fusion partners are left off. Residues count along the entry.
# UniProt P84022: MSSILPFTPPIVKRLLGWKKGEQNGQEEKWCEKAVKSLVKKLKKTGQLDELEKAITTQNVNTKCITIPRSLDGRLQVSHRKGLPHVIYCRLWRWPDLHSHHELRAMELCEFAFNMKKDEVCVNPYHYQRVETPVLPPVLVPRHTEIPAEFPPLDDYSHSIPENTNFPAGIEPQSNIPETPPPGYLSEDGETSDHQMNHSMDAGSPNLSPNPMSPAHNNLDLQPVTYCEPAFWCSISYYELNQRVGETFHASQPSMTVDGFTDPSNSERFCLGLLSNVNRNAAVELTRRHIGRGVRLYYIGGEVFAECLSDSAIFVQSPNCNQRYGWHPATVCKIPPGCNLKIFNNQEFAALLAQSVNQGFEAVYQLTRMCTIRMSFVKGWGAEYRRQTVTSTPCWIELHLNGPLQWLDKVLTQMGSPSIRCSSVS
# UniProt Q15796: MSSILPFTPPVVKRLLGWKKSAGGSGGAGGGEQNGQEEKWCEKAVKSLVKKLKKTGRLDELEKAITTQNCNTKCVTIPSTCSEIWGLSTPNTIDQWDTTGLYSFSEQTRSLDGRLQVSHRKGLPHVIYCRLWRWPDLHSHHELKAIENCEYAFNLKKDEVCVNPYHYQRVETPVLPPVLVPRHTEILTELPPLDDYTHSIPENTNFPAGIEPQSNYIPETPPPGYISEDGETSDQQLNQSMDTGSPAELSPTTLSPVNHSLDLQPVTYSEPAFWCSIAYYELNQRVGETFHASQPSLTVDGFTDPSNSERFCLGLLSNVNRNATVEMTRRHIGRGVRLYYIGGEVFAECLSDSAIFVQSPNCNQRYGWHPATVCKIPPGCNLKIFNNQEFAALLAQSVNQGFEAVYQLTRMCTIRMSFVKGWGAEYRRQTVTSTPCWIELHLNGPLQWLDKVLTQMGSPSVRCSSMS
# UniProt Q96AE4: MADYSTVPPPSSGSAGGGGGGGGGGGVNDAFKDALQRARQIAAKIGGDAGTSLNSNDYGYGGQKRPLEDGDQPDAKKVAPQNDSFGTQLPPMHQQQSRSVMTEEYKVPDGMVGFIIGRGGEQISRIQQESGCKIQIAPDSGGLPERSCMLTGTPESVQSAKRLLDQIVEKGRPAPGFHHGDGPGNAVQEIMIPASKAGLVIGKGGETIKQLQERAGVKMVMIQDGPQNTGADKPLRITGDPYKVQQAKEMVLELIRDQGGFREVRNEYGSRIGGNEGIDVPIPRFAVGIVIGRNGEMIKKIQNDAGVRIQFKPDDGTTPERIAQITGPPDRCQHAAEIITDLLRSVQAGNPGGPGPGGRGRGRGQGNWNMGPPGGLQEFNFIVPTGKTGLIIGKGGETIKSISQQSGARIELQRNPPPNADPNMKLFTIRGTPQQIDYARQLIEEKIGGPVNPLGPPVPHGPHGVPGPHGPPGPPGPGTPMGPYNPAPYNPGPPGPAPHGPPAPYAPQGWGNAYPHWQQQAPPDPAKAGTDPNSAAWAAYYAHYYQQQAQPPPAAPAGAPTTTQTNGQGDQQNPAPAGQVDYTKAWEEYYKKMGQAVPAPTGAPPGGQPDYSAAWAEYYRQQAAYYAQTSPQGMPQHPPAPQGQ
# UniProt Q8BUN5, residues 2-425: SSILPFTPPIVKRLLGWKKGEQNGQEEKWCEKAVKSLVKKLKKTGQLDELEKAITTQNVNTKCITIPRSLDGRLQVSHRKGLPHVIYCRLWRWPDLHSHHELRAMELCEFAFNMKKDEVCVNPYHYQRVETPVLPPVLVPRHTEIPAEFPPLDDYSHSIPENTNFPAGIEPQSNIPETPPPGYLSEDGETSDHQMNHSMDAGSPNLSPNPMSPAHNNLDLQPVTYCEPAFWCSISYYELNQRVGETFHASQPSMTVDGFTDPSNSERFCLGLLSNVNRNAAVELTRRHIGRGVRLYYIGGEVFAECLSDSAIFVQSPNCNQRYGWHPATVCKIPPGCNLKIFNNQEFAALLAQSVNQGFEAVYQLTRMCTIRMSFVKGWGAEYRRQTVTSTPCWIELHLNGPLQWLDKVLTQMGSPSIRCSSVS
# UniProt Q62432, residues 2-467: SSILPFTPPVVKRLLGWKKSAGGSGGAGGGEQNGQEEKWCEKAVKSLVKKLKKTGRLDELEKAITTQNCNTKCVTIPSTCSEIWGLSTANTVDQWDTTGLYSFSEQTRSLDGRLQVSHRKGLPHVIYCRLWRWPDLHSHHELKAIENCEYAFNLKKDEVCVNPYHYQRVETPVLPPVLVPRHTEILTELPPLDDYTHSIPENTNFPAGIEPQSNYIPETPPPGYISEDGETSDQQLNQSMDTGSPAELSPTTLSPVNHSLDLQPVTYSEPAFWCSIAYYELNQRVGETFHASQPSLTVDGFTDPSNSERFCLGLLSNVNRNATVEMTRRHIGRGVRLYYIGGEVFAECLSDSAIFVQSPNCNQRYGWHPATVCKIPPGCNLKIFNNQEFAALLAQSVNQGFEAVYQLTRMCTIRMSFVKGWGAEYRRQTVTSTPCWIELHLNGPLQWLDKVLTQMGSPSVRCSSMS
# Results are given in words; binding and its absence hold for the method and conditions named. For some assays here: Binding seen in cells or lysates may run through a third protein. Some results given as binding are weak or reduced against the parent protein; the word gives no strength. For some assays here: Sequences can lack the tags named with a protein.
# T1: GST-AIMP2-F (human) (UniProt Q13155)
# T1 sequence: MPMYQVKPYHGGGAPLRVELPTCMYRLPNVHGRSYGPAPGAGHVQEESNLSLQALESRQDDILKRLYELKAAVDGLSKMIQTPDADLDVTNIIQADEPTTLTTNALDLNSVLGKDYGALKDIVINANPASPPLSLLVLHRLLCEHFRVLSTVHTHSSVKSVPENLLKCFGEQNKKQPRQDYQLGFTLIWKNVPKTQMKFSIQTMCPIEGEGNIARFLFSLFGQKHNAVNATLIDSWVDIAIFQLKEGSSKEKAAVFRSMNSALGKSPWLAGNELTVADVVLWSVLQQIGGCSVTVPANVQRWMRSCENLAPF
# T2: AIMP2 protein (wild type, full-length) (human) (UniProt Q13155)
# T2 sequence: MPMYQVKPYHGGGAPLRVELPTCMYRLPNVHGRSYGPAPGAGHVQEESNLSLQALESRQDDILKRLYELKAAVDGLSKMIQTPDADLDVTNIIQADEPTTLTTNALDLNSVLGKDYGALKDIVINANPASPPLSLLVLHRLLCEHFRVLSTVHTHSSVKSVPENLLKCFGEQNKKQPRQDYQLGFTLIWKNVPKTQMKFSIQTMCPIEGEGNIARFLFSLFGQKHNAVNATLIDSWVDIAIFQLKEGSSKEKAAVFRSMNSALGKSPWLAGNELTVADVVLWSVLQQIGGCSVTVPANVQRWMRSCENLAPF
# Assays:
# Smad3 [1] = target: Smad3 (UniProt P84022); assay: co-immunoprecipitation from A549 cells with anti-Smad3 antibody (FIG. 2a)
# Smad3 [2] = target: Smad3 (UniProt P84022); assay: yeast two hybrid and in vitro pull-down
# Smad2 (human) (human) [3] = target: Smad2 (human) (human) (UniProt Q15796); assay: yeast two hybrid and in vitro pull-down
# Smad2 (human) (human) [4] = target: Smad2 (human) (human) (UniProt Q15796); assay: yeast two hybrid (FIG. 4e)
# FUSE-binding protein = FUSE-binding protein (UniProt Q96AE4); assay: yeast two hybrid (FIG. 4e)
# Smad2 (human) (human) [5] = target: Smad2 (human) (human) (UniProt Q15796); assay: co-immunoprecipitation from A549 cells with anti-Smad2 antibody (FIG. 2a)
# GST-AIMP2-F (human) = target: T1, GST-AIMP2-F (human); assay: in vitro pull-down, 35S-labelled protein with GST fusion on glutathione-Sepharose (FIG. 4d)
# [6] = target: Smad3 (in mouse embryonic fibroblasts) (mouse) (UniProt Q8BUN5); assay: co-immunoprecipitation with anti-Smad3 antibody (FIG. 1e)
# [7] = target: Smad2 (in mouse embryonic fibroblasts) (mouse) (UniProt Q62432); assay: co-immunoprecipitation with anti-Smad2 antibody (FIG. 1e)
# [8] = target: T2, AIMP2 protein (wild type, full-length) (human); assay: yeast two hybrid (FIG. 4c)
binding (Smad3 [1]),binding (Smad3 [2]),binding (Smad2 (human) (human) [3]),binding (Smad2 (human) (human) [4]),binding (FUSE-binding protein),binding (Smad2 (human) (human) [5]),binding (GST-AIMP2-F (human)),binding [6],binding [7],binding [8],Binder
binds,binds,binds,binds,binds,binds,binds,,,,"AIMP2 protein (wild type, full-length) (protein) MPMYQVKPYHGGGAPLRVELPTCMYRLPNVHGRSYGPAPGAGHVQEESNLSLQALESRQDDILKRLYELKAAVDGLSKMIQTPDADLDVTNIIQADEPTTLTTNALDLNSVLGKDYGALKDIVINANPASPPLSLLVLHRLLCEHFRVLSTVHTHSSVKSVPENLLKCFGEQNKKQPRQDYQLGFTLIWKNVPKTQMKFSIQTMCPIEGEGNIARFLFSLFGQKHNAVNATLIDSWVDIAIFQLKEGSSKEKAAVFRSMNSALGKSPWLAGNELTVADVVLWSVLQQIGGCSVTVPANVQRWMRSCENLAPF"
,,,,,,,binds,binds,,"AIMP2 (in mouse embryonic fibroblasts) (protein, UniProt Q8R010 1-320, looked up) MPMYQVKPYHGGSAPLHVELPTCMYRLPNVHSKTTSPATDAGHVQETSEPSLQALESRQDDILKRLYELKAAVDGLSKMIHTPDADLDVTNILQADEPTTLATNTLDLNSVLGKDYGALKDIVINANPASPPLSLLVLHRLLCERYRVLSTVHTHSSVKNVPENLVKCFGEQARKQSRHEYQLGFTLIWKNVPKTQMKFSVQTMCPIEGEGNIARFLFSLFGQKHNAVTLTLIDSWVDIAMFQLREGSSKEKAAVFRSMNSALGRSPWLVGNELTVADVVLWSVLQQTGGSSGAAPTNVQRWLKSCENLAPFSTALQLLK"
,,,,,,binds,,,binds,AIMP2-DX2 protein (protein) MPMYQVKPYHGGGAPLRVELPTCMYRLPNVHGRSYGPAPGAGHVQDYGALKDIVINANPASPPLSLLVLHRLLCEHFRVLSTVHTHSSVKSVPENLLKCFGEQNKKQPRQDYQLGFTLIWKNVPKTQMKFSIQTMCPIEGEGNIARFLFSLFGQKHNAVNATLIDSWVDIAIFQLKEGSSKEKAAVFRSMNSALGKSPWLAGNELTVADVVLWSVLQQIGGCSVTVPANVQRWMRSCENLAPFNTALKLLK
